Source: PubChem BioAssay AID540256 (National Center for Advancing Translational Sciences (NCATS), 2011)
Screen size: about 300,000 compounds; about 3,700 (1.2%) were called active. Inconclusive results, whose numbers are uncertain, are shown with a selection of clear calls. The call rests on the fitted dose curve; tested in HEK293 cells. Where the call is inconclusive, the potency comes from a doubtful curve fit.

assay: qHTS for Inhibitors of binding or entry into cells for Lassa Virus; conditions: Lassa virus pseudotype entry inhibition, cell reporter; series mostly up to 37.9 µM; further: nearly all actives have a fitted effect of over 50% in size
Potency means the concentration at half of the fitted maximal effect.

| SMILES | Potency |
| --- | --- |
| CC1CCN(Cc2c(O)ccc3c(=O)c(-c4nc5ccccc5s4)c(N)oc23)CC1 | inactive |
| CCCCNC(=O)CSc1nc2cc3c(cc2c(=O)n1CCCC(=O)NCc1ccc(OC)cc1)OCO3 | inactive |
| CCn1c(CNC(=O)c2cc(OC)c(OC)c(OC)c2)cc2ccccc21 | inconclusive: 14.1 µM [inhibitor, partial curve, poor fit] |
| Cc1cc(C)c(C#N)c(SCc2ccc([N+](=O)[O-])cc2)n1 | inactive |
| CC(C)CC(=O)NC1CC(=O)N(c2ccc3c(c2)OCCO3)C1 (stereo unspecified) | inactive |
| CCCc1cc(C(=O)Nc2ccc(C(=O)c3ccc(C)cc3)cc2)n(C)n1 | inconclusive: 7.94 µM [inhibitor, partial curve, poor fit] |
| COc1ccc(Nc2nc3ccccc3n3c(N)nnc23)cc1 | inactive |
| Nc1ccc(Sc2ccccc2Cl)nc1 | inconclusive: 5.62 µM [inhibitor, single point] |
| COc1ccc(CC(=O)Nc2nccs2)cc1OC | inactive |
| Cc1c[nH]c2cccc(OCC(CNC(C)(C)C)OC(=O)c3ccccc3)c12 (stereo unspecified) | inconclusive: 5.62 µM [inhibitor, single point] |
| CC(=O)c1cccc(NC(=O)CN2C(=S)NC(C)(C)CC2C)c1 (stereo unspecified) | inactive |
| O=C(Nc1ccccn1)c1ccc(CN(c2ccccc2)S(=O)(=O)c2ccccc2)cc1 | inconclusive: 11.2 µM [inhibitor, partial curve, poor fit] |
| O=CNc1ccc2c(c1)Cc1cccc(NC=O)c1-2 | inconclusive: 5.62 µM [inhibitor, single point] |
| Cc1ccc(OCc2cc(C(=O)N(CCO)Cc3cccs3)no2)cc1C | inconclusive: 0.891 µM [activator, full curve, poor fit] |
| CC(=O)N1CCC2(CC1)C(C#N)=C(N)Oc1c2sc2nc(C)cc(C)c12 | inconclusive: 0.13 µM [inhibitor, full curve, poor fit] |
| CC1CCN(C(=O)CN2CC(C)Sc3ccccc32)CC1 (stereo unspecified) | inconclusive: 0.501 µM [activator, full curve, poor fit] |
| COc1ccccc1C(c1nnnn1CCc1ccccc1)N1CCCCCC1 (stereo unspecified) | inconclusive: 16.4 µM [inhibitor, single point] |
| Cc1ccc(NC(=O)N2CC=C(c3c[nH]c4ccccc34)CC2)cc1Cl | inconclusive: 35.5 µM [inhibitor, single point] |
| CCCC(=O)Nc1sc2c(c1C#N)CCCCC2 | inconclusive: 28.2 µM [inhibitor, single point] |
| N#Cc1cc2c(nc1SCC(=O)Nc1cc(Cl)ccc1Cl)C1CCN2CC1 | inconclusive: 0.231 µM [inhibitor, full curve, poor fit] |
| Clc1cccc(Nc2ncnc3c2nc2n3CCCCC2)c1 | inactive |
| Cn1c(=O)oc2cc(S(=O)(=O)CCC(=O)NCc3ccc(Cl)cc3)ccc21 | inactive |
| CC[C@H](C)[C@H](NC(N)=O)C(=O)NCCc1ccc(OC)c(OC)c1 | inconclusive: 1.26 µM [inhibitor, single point] |

Molecules shown so far with an NH in an aromatic ring (two):

| SMILES | Potency |
| --- | --- |
| Cc1c[nH]c2cccc(OCC(CNC(C)(C)C)OC(=O)c3ccccc3)c12 (stereo unspecified) | inconclusive: 5.62 µM [inhibitor, single point] |
| Cc1ccc(NC(=O)N2CC=C(c3c[nH]c4ccccc34)CC2)cc1Cl | inconclusive: 35.5 µM [inhibitor, single point] |

The list goes on:

| SMILES | Potency |
| --- | --- |
| Cc1cc(C)c2nc(N3CCCN(C(=O)c4ccco4)CC3)c(C#N)cc2c1 | inactive |
| O=C(N=c1ccn(-c2nc3ccccc3nc2NS(=O)(=O)c2ccccc2)cc1)c1cccs1 | inactive |
| Oc1ccc(Br)cc1-c1nc2cnccn2c1NC1CCCCC1 | inactive |
| CC(=O)C1=C(O)C(=O)N(c2ccc(S(=O)(=O)Nc3nccs3)cc2)C1c1ccc(F)cc1 (stereo unspecified) | inactive |
| CCn1c(=O)c([N+](=O)[O-])c(Cl)c2ccccc21 | inconclusive: 28.2 µM [inhibitor, single point] |
| COC(=O)c1ccc(N2C(=O)CC(Sc3n[nH]c(C)n3)C2=O)cc1 (stereo unspecified) | inconclusive: 35.5 µM [inhibitor, single point] |
| S=C(NN=Cc1ccccn1)N(Cc1ccccn1)Cc1ccccn1 | inconclusive: 3.55 µM [inhibitor, full curve] |
| CCn1c(SCc2ccc(Cl)cc2)nc2nc3c(cc2c1=O)CCCC3 | inconclusive: 35.5 µM [inhibitor, single point] |
| COc1ccc(N/N=C(/N=Nc2nc(C)cc(=O)[nH]2)c2ccccc2)cc1 | active: 5.01 µM |
| O=C(CN1CCN(C(=S)NC2CCCC2)CC1)Nc1ccc(Oc2ccccc2)cc1 | inconclusive: 25.1 µM [inhibitor, single point] |
| COC(=O)c1cc(-c2ccccc2)sc1N | inconclusive: 10.3 µM [activator, single point] |
| CCCCCCOC(=O)CCn1[nH]c(=O)c2ccccc2c1=O | inconclusive: 23.1 µM [activator, partial curve, poor fit] |
| CC(C)(C)C(=O)Nc1ccc2c(c1)OCCOCCOc1cc(NC(=O)C(C)(C)C)ccc1OCCOCCO2 | inconclusive: 35.5 µM [activator, single point] |
| COC(=O)C1=C(C)N(Cc2ccccc2)C(=NCCc2cccnc2)NC1c1ccc(Br)cc1 (stereo unspecified) | inconclusive: 0.0075 µM [activator, full curve, poor fit] |
| Cc1ccc(C2CC(=O)Nc3c2c(C)nn3-c2nc(C)cc(C)n2)c(C)c1 (stereo unspecified) | inactive |
| Cc1ccc(NC(=O)c2cc(NC(=O)C3CC=CCC3C(=O)O)ccc2N2CCOCC2)cc1Cl (stereo unspecified) | inactive |
| CC(=O)c1c(C)[nH]c(C(=O)Nc2ccc(C)cc2Br)c1C | inconclusive: 12.6 µM [activator, partial curve, poor fit] |
| O=S(=O)(Cc1cc(NCc2ccccc2)nc(-c2ccccn2)n1)c1ccccc1 | inconclusive: 35.5 µM [inhibitor, partial curve, poor fit] |
| O=C(CSc1nc(N2CCCCC2)nc(N2CCCCC2)n1)N1CCN(c2ccccc2)CC1 | inconclusive: 35.5 µM [inhibitor, single point] |
| O=C1N=C(N2CCN(c3ccccc3)CC2)SC1Cc1ccccc1 (stereo unspecified) | inactive |
| Cc1nn(Cc2c(Cl)cccc2Cl)c(C)c1NC(=O)c1sc2ccccc2c1Cl | inactive |
| CCC(C)OC(=O)/C(C#N)=C/c1ccc(-c2ccc(Br)cc2)o1 (stereo unspecified) | inactive |
| O=C(CCCCCn1c(=O)c2sccc2n(CC(=O)Nc2ccccc2F)c1=O)NCc1ccc2c(c1)OCO2 | inactive |
